# Measurements as given in patent US20210052679A1, “PROBIOTIC DELIVERY OF GUIDED ANTIMICROBIAL PEPTIDES” (priority 2019, published 2021).
# Some of these results come from one statement about several compounds together.
# Tested on: Staphylococcus aureus, Staphylococcus epidermidis, Enterococcus faecalis and Bacillus subtilis
# Experiment: In vitro bactericidal activity assay (MIC, microtiter serial dilution, resazurin), all four strains
# Format: cell-based
# Conditions: unmodified AMPs produced in E. coli; FIG. 3
row,Substance,mean MIC
1,eurocin,3 to 6 µM
2,plectasin,3 to 6 µM
